Test results published in the supplement of paper PMC12819154, “High-throughput peptide-centric local stability assay extends protein–ligand identification to membrane proteins, tissues and bacteria” (Nature Structural & Molecular Biology, 2025).
The other results are listed elsewhere or left out. Small differences around the control level are noise.

Amino acid sequences for entries named in this document (tags omitted). A change or cut given only in a name is not applied to a line headed by its entry.
UniProt Q9QYI5: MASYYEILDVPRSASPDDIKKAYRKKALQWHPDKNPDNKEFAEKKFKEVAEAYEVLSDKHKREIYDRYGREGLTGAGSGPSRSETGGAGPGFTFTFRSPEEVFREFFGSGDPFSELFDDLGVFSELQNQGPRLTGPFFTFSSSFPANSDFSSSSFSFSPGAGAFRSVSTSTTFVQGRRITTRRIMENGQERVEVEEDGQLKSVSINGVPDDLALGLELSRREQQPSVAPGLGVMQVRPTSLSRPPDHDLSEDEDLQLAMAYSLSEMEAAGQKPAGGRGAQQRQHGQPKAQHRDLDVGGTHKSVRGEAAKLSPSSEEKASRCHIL
UniProt Q9WTQ5: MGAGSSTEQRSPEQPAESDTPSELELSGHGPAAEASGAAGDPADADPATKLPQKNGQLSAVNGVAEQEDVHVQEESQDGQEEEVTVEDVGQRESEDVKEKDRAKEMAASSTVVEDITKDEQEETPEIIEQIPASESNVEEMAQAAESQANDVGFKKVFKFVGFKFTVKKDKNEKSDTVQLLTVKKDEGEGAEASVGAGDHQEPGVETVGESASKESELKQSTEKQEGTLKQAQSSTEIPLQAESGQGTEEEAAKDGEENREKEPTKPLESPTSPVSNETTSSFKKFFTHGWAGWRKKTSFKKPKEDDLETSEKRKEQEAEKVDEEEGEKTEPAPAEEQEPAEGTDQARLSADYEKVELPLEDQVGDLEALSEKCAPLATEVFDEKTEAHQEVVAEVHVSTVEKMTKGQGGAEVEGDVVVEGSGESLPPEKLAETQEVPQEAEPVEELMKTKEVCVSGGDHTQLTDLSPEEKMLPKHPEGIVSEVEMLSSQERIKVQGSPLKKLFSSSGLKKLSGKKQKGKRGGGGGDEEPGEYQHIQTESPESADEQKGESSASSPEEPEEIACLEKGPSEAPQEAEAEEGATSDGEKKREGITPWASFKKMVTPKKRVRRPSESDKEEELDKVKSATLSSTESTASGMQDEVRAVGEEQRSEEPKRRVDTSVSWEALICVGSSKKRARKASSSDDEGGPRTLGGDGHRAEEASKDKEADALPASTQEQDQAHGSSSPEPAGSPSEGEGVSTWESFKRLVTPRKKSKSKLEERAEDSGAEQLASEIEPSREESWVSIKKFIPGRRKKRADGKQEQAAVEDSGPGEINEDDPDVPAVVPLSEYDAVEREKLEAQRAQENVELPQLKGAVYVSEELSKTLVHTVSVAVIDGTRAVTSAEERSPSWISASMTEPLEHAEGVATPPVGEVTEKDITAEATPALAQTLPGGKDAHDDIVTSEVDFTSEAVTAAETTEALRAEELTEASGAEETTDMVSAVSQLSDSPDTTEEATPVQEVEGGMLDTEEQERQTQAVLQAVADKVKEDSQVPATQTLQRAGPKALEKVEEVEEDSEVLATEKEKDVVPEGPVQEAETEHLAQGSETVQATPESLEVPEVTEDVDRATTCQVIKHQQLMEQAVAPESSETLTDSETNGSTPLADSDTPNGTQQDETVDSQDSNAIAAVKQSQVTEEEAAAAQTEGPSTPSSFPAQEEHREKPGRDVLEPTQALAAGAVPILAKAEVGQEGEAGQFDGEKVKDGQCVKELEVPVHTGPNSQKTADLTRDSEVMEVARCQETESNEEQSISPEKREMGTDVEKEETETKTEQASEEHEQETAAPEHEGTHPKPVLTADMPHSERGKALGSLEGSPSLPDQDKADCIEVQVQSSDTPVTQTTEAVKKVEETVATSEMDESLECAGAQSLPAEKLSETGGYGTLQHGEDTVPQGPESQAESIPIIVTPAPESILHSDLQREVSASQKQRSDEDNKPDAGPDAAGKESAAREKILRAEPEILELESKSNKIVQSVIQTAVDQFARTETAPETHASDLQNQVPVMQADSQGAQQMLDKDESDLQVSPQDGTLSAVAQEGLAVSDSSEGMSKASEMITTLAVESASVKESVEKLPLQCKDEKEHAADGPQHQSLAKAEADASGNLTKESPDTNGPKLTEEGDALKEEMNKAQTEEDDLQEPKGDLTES
UniProt Q9WUH7: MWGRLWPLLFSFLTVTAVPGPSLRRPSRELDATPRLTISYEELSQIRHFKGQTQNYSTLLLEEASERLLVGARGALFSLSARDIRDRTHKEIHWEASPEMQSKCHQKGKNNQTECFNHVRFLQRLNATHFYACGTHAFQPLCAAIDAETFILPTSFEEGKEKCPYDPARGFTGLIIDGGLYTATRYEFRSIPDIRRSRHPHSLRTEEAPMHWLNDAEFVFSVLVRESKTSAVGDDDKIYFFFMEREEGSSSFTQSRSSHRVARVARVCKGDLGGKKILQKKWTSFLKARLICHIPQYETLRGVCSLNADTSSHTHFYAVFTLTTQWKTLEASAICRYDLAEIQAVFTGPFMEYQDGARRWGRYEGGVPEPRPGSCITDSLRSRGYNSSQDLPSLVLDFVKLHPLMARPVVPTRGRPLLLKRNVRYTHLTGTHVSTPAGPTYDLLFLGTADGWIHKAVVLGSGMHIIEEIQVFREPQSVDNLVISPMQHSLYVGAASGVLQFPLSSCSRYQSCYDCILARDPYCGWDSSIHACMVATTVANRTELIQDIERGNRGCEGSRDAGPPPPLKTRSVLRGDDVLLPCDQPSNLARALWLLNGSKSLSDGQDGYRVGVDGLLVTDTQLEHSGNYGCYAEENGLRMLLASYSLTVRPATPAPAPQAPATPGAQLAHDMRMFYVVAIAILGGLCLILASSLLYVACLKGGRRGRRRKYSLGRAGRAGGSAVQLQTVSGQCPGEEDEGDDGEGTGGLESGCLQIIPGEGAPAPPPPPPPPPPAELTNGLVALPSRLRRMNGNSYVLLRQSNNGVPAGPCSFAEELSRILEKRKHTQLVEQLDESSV
UniProt Q9R0A0, whole entry: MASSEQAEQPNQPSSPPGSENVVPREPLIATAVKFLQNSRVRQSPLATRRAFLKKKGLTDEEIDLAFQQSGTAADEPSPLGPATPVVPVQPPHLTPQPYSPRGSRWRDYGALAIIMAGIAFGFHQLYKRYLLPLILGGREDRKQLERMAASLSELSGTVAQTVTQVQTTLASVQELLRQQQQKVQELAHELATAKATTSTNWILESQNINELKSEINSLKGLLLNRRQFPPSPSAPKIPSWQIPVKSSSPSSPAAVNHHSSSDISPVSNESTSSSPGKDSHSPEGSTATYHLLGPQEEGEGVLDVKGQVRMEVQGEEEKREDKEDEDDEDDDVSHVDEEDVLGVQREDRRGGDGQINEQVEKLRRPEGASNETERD
UniProt Q9WUF3: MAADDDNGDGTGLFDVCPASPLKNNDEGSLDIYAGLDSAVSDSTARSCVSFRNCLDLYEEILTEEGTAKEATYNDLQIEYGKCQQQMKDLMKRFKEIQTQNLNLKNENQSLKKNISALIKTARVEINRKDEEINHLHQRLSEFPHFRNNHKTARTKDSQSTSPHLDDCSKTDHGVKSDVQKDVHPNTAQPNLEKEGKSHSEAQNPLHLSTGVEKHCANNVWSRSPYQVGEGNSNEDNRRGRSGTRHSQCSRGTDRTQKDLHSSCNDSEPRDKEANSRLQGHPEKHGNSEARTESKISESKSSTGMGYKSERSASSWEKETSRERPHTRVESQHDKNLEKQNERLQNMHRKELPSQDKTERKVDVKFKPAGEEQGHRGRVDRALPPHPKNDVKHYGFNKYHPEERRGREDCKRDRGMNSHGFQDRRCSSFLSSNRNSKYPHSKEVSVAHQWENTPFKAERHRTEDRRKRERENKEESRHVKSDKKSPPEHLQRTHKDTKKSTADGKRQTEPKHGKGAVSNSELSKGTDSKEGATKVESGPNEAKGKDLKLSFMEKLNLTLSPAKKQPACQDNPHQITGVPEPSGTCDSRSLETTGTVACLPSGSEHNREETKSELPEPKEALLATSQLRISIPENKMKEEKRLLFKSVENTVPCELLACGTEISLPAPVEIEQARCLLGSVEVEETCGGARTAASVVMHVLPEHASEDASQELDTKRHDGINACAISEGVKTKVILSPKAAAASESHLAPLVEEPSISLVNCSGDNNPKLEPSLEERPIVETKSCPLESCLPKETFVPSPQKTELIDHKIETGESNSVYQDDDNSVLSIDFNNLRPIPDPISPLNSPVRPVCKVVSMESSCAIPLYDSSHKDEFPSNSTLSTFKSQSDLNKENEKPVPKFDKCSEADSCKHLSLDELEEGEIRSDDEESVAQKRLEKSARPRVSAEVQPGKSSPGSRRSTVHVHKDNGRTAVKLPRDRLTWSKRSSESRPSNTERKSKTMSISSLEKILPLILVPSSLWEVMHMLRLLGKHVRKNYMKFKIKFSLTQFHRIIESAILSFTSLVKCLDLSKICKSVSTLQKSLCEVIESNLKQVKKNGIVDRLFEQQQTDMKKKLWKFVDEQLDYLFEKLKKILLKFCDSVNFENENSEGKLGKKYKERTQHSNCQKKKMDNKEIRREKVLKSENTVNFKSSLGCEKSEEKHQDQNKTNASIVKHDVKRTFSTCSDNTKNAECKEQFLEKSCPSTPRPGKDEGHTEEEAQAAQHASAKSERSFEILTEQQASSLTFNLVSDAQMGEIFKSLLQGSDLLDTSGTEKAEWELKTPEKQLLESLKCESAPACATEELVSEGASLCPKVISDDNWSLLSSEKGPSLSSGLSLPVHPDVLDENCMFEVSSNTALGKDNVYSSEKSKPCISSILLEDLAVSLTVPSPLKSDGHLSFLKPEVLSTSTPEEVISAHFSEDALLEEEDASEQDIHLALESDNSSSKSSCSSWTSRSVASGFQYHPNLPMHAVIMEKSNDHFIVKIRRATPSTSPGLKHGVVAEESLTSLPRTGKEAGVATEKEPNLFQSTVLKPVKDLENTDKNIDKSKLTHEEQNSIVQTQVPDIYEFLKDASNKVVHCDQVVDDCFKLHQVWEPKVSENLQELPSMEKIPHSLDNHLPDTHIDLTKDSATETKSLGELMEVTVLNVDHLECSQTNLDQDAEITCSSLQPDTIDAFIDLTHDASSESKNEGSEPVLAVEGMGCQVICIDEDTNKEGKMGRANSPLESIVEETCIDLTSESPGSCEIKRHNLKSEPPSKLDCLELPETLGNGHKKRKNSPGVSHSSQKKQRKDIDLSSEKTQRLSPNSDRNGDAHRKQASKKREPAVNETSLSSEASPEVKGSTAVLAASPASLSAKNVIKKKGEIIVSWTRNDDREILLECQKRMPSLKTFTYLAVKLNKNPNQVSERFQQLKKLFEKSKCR
UniProt Q9QXE4: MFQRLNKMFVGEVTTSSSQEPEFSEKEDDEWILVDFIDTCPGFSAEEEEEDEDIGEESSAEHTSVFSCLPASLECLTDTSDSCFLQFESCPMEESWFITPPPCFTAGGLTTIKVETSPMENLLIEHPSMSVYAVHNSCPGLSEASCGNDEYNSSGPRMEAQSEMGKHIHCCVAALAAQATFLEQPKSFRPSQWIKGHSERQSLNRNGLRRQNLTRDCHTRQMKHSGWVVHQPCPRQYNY
UniProt Q9R061: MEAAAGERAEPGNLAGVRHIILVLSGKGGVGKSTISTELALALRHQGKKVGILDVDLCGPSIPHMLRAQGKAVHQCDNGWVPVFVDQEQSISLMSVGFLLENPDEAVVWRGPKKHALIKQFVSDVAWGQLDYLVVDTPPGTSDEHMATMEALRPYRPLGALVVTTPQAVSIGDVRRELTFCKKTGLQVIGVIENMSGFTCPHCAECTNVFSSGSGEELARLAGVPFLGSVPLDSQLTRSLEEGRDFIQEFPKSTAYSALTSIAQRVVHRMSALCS
UniProt Q9QZ25: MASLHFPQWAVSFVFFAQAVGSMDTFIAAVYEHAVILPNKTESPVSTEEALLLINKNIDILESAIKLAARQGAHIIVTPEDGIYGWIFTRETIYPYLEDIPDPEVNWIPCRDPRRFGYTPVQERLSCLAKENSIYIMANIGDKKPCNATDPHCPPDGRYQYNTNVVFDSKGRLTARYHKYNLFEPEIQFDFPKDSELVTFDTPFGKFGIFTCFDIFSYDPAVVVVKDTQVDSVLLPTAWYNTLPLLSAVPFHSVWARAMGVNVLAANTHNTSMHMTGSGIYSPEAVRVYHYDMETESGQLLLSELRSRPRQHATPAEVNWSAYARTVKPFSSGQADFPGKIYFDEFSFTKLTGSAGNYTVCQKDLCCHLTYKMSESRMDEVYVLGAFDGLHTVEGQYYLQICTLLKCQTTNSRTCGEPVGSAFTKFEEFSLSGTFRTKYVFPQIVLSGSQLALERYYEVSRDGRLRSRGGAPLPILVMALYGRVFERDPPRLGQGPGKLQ
UniProt Q9R226: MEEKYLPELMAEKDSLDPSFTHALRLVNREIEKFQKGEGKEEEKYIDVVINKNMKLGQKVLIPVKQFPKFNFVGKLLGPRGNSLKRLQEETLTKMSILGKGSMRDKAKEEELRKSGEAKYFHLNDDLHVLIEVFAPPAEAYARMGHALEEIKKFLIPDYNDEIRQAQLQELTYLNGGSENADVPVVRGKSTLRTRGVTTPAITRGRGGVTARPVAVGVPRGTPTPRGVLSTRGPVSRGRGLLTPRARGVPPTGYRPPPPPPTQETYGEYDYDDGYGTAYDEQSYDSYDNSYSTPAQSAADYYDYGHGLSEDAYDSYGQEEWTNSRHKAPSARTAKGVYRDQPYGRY

What follows are targets tested with CN[C@@H]1C[C@H]2O[C@@](C)([C@@H]1OC)n1c3ccccc3c3c4c(c5c6ccccc6n2c5c31)C(=O)NC4 [staurosporine] (assay: log2 fold change of tryptic peptide abundance, ligand vs vehicle (limited proteolysis) (log2 ratio); higher = more trypsin-susceptible (destabilized)). Conditions: ligand concentration: 20 uM; sample: mouse liver crude lysate; replicate design: treated separately.

Target	log2 fold change
UniProt Q9R207 (peptide sequence: DEDNPELSSCK, peptide start residue: 469)	0.376
UniProt Q9WUK2 (peptide sequence: SLRVDIAEGR, peptide start residue: 110)	0.284
UniProt Q9WV34 (peptide sequence: TLVLIGAQGVGR, peptide start residue: 353)	-0.265
UniProt Q9QXP7 (peptide sequence: QGEDLPTSR, peptide start residue: 64)	-0.051
UniProt Q9QYI5 (peptide sequence: DLDVGGTHK, peptide start residue: 293)	-0.109
UniProt Q9WTQ5 (peptide sequence: ESVEKLPLQCK, peptide start residue: 1605)	0.944
UniProt Q9R1T4 (peptide sequence: EAEKELHEKFDR, peptide start residue: 359)	0.432
UniProt Q9QXG4 (peptide sequence: TVYGNHTRFETTYFK, peptide start residue: 528)	0.16
UniProt Q9WUH7 (peptide sequence: MNGNSYVLLR, peptide start residue: 790)	-0.0591
UniProt Q9QZI8 (peptide sequence: SDGSLDDGDGIHR, peptide start residue: 361)	-0.00247
UniProt Q9R060 (peptide sequence: HKLLVLSGK, peptide start residue: 55)	0.371
UniProt Q9QZM0 (peptide sequence: NPEISHLLNNPDIMR, peptide start residue: 229)	-0.0941
UniProt Q9R0A0 (peptide sequence: VQELAHELATAK, peptide start residue: 184)	0.127
UniProt Q9R0A1 (peptide sequence: VRPPLASFR, peptide start residue: 860)	0.168
UniProt Q9R1J0 (peptide sequence: AVLDANDPKK, peptide start residue: 171)	-0.367
UniProt Q9QY30 (peptide sequence: IDFIDCK, peptide start residue: 1078)	-0.67

Target	log2 fold change
UniProt Q9R0Q3 (peptide sequence: HEQEYMEVR, peptide start residue: 146)	-0.686
UniProt Q9WV80 (peptide sequence: LQEVECEEQR, peptide start residue: 313)	0.184
UniProt Q9WUQ2 (peptide sequence: LFTVQIPHKR, peptide start residue: 264)	0.797
UniProt Q9WUF3 (peptide sequence: KNYMKFK, peptide start residue: 1033)	0.136
UniProt Q9QXE4 (peptide sequence: MEAQSEMGK, peptide start residue: 158)	-0.172
UniProt Q9R049 (peptide sequence: VVGNMEAR, peptide start residue: 318)	0.132
UniProt Q9QZW0 (peptide sequence: NSDYSVPK, peptide start residue: 844)	-0.947
UniProt Q9QXK7 (peptide sequence: LTGDVEELEIQEKPALK, peptide start residue: 533)	-0.299
UniProt Q9R061 (peptide sequence: AEPGNLAGVR, peptide start residue: 9)	-0.0897
UniProt Q9QZ25 (peptide sequence: LGQGPGKLQ, peptide start residue: 492)	-0.219
UniProt Q9WTY1 (peptide sequence: AAADGVLAEVR, peptide start residue: 293)	0.116
UniProt Q9R1T2 (peptide sequence: KVLFCPVK, peptide start residue: 214)	0.217
UniProt Q9WTJ4 (peptide sequence: HVLVHTGEKPFPCLECGK, peptide start residue: 436)	-0.35
UniProt Q9R226 (peptide sequence: EIEKFQK, peptide start residue: 30)	0.848
UniProt Q9R078 (peptide sequence: KTDFEVFDALMVDSQK, peptide start residue: 157)	0.314

For convenience, part of the list above:
Target	log2 fold change
UniProt Q9WUQ2 (peptide sequence: LFTVQIPHKR, peptide start residue: 264)	0.797
UniProt Q9WUF3 (peptide sequence: KNYMKFK, peptide start residue: 1033)	0.136
UniProt Q9QXE4 (peptide sequence: MEAQSEMGK, peptide start residue: 158)	-0.172
UniProt Q9R049 (peptide sequence: VVGNMEAR, peptide start residue: 318)	0.132
UniProt Q9QZW0 (peptide sequence: NSDYSVPK, peptide start residue: 844)	-0.947
UniProt Q9QXK7 (peptide sequence: LTGDVEELEIQEKPALK, peptide start residue: 533)	-0.299
UniProt Q9R061 (peptide sequence: AEPGNLAGVR, peptide start residue: 9)	-0.0897
UniProt Q9QZ25 (peptide sequence: LGQGPGKLQ, peptide start residue: 492)	-0.219
